Laboratory results as given in the supplement of paper PMC12823440, “Inhibitors supercharge kinase turnover through native proteolytic circuits” (Nature, 2025).
Some of the results follow. The calls rarely recur for the same compound in another form.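 Kinases were expressed as nanoluciferase fusions in K562 cells and luminescence was read every 4 h between 2 and 18 h as percent of control, DMSO set to 100% and a positive control to 0%. A time point counts as decreased when the signal drops significantly (2 sigma). The hit call is the authors' own, does not follow from the count of time points alone, and its rule is not shown.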

Target: EGFR_G719S_T790M (UniProt P00533)
Experiment: kinase-Nluc reporter destabilization hit call (1 = scored as downregulated) (binary); higher = compound decreases kinase abundance
Settings: 10 µM; K562; 2-18 h

kinase-Nluc reporter destabilization hit call, inactive:
C=CC(=O)N1CCC([C@@H]2CCNc3c(C(N)=O)c(-c4ccc(Oc5ccccc5)cc4)nn32)CC1 [Zanubrutinib] 0, CCn1c(=O)c(-c2cc(NC(=O)Nc3ccccc3)c(F)cc2Br)cc2cnc(NC)cc21 [Ripretinib] 0, COc1cc(N2CCN(C)CC2)ccc1Nc1nccc(-c2cn(C)c3cnccc23)n1 0, Fc1ccc(-c2nc(-c3ccc4ccccc4c3F)[nH]c2-c2ccncc2)cc1 0, C=CC(=O)N(C)CCOc1c(N)ncnc1-c1cc(F)cc(NC(=O)c2ccc(C3CC3)cc2F)c1C [Remibrutinib] 0, NCCNc1ncc(C(N)=O)c(Nc2cccc(C(F)(F)F)c2)n1 [Syk Inhibitor II] 0, C[C@@H]1O[C@@H](Oc2c(-c3ccc(O)c(O)c3)oc3cc(O)cc(O)c3c2=O)[C@H](O)[C@H](O)[C@H]1O [Quercitrin] 0, CCCOc1ccc(C=C2SC(=O)NC2=O)cc1 0, Cc1cc2c(F)c(Oc3ncnn4cc(OC[C@@H](C)O)c(C)c34)ccc2[nH]1 [Brivanib] 0, CC(C)[C@@](C)(O)[C@@H]1CN(c2nc(-c3[nH]nc4ncccc34)c(F)cc2Cl)CCN1 0, CCCCCCCCCCCCc1ccc(S(=O)(=O)Nc2nncs2)cc1 0, CC#CC(=O)N1CCC[C@H]1c1nc(-c2ccc(C(=O)Nc3ccccn3)cc2)c2c(N)nccn12 [Acalabrutinib] 0, CC(C)N(CCC(=O)c1ccc2ccccc2c1)Cc1ccccc1 0, C=CC(=O)N1C[C@@H](Nc2ncnc3[nH]ccc23)CC[C@H]1C [(2R,5S)-Ritlecitinib] 0, COc1ccc(-c2cc(C(=O)NN=C(C)c3ccc(OC)c(OC)c3)[nH]n2)cc1 0, Cc1ccc2c(=O)c3cccc(CC(=O)O)c3oc2c1C [Vadimezan] 0, C[C@@H]1CN(C(=O)Nc2ccc(-c3nc(N4CCOCC4)c4cnn(CCCCCCC(=O)NO)c4n3)cc2)CCO1 [HDACs/mTOR Inhibitor 1] 0, C[C@H]1CN(C2COC2)CCN1c1ccc(Nc2cc(-c3ccnc(N4CCn5c(cc6c5CC(C)(C)C6)C4=O)c3CO)cn(C)c2=O)nc1 [Fenebrutinib] 0, Nc1ncccc1-c1nc2ccc(-c3ccccc3)nc2n1-c1ccc(C2(N)CCC2)cc1 [Miransertib] 0, O=c1ncn2nc(Sc3ccc(F)cc3F)ccc2c1-c1c(Cl)cccc1Cl [Neflamapimod] 0, CCCCCC1CC1CC1CC1CCCCCCCC(=O)OC (stereo not drawn) 0, NC1(C(=O)N[C@@H](CCO)c2ccc(Cl)cc2)CCN(c2nc[nH]c3nccc2-3)CC1 [Capivasertib] 0, Cc1ccc(O)cc1Nc1ccnc(Nc2cccc(C(N)=O)c2)n1 [Lck inhibitor 2] 0
